No constants are given. Whether binding was seen depends on the method and setting. In cells and extracts the contact can be indirect. Binding can be weak; no strength is given.
What was measured:
Test in all cases: pull-down; GST-tagged N- or C-terminal parts of t-γ-TuRC proteins purified and immobilized on glutathione sepharose beads (bait), mixed with 35S-methionine-labelled IVTT prey proteins; autoradiography; only the target purified
[1] = biological target: GST-t-Grip128-C (GST-tagged C-terminal part of t-Grip128) (Drosophila melanogaster)
[2] = biological target: GST-t-Grip84-N (GST-tagged N-terminal part of t-Grip84) (Drosophila melanogaster)
[3] = biological target: GST-t-Grip91-N (GST-tagged N-terminal part of t-Grip91) (Drosophila melanogaster)

binding [1]: binds
binding [2]: binds
binding [3]: binds
B1: 35S-methionine-labelled full-length γ-Tub23C (IVTT prey) (protein, UniProt P23257 1-475)
chain: MPSEIITLQLGQCGNQIGFEFWKRLCLEHGISPSGVLEDFANDGLDRKDVFFYQADDDHYIPRAVLLDLEPRVINTIMGSVYSKLYNPENVYLSKHGGGAGNNWASGYSQGEKLQEEVFDIIDREADGSDSLEGFILCHSIAGGTGSGMGSFIMERLADRYPKKLIQTFSVFPNQDEISDVVVQPYNSMLTLKRLTTAADSVVVLDNTALNRIACDRLHIQNPSFSQINNLVSTIMSVSTTTLRYPSYMNNNLIGLTAPLIPTPQLHFLMTGYTPLTSDSDIHTQQLVNVRKTTVLDVMRRLLQPKNMMVSTGPDKSNHHCYISILNIIQGEVDPTQVHKSLQRIRDRKMAQFIPWGPTSIQVALSRSSPYVQSNHRVSGLMLANHTSICSLFERALNQYDKLRKRGAFLDQFRREDIFKDDLNELDESRETVDCLVQEYEAATREDYMQFSVKRGNGPVDSKSEDSRSVTSAGS
modifications: 35S-methionine-labelled
